# Measured values as given in article PMC12040169 (PLOS Biology, 2025).
# The list shows a part of the results.
# System: T1, CTL2-GFP (C. trachomatis L2/434/Bu, GFP-expressing)
# T1 construct: L2/434/Bu, GFP-expressing
# Design: species or system HeLa; Intracellular C. trachomatis growth in HeLa cells, bulk GFP fluorescence relative to DMSO
# Conditions: bulk GFP, single well; 28.5 h, 10 µM; inhibitor
row,SMILES,% of control remaining [%]
1,COc1cccc(-c2noc(C3CCN(CCc4ccc(F)cc4)CC3)n2)c1 [CBK051461],106.355
2,CCOC(=O)c1c(NC(=O)c2ccccc2C(=O)O)sc2c1CCCC2 [CBK116364],122.79
3,O=C(NCc1ccco1)c1ccc(-c2ccoc2)nc1 [CBK156279],94.0182
4,O=C(CNC(=O)c1ccc(Br)cc1)NC1CCCC1 [CBK269591],143.192
5,CC(=O)Cn1cnc2c(cnn2-c2cccc(Cl)c2)c1=O [CBK287692],127.845
6,O=C(Nc1ccccc1)OC1CCCCC1 [CBK015569],88.6116
7,CC(C)C(=O)N1CCN(c2ccccc2NC(=O)c2ccc(N3CCCCC3)c([N+](=O)[O-])c2)CC1 [CBK267609],122.419
8,O=C(O)c1ccccc1NS(=O)(=O)/C=C/c1ccccc1 [CBK042363],116.507
9,O=C(CCSc1c(Cl)cccc1[N+](=O)[O-])Nc1ccc(Br)c2cccnc12 [CBK266777],119.695
10,CCN1CCc2cc(CN3CCCC(Cn4ccnc4C)C3)ccc21 (centres unmarked) [CBK281965],112.201
11,CCN(CCO)c1ccc(Nc2nc(-c3cccc4ccccc34)cn3ccnc23)cc1 [CBK066243],173.636
12,CNC(=O)CN1C[C@H](NC(=O)c2cccc3c2NCCC3)[C@@H](C(C)C)C1 [CBK307073],106.543
13,O=c1ccc(-c2ccc(F)cc2)nn1CC1CCNCC1 [CBK284216],107.659
14,O=C(CSc1nnc(-c2cccnc2)n1-c1ccc(Br)cc1)Nc1ccc(F)cc1 [CBK266174],128.905
15,CC(=O)c1ccc(-c2nccnc2NCC(O)COc2ccccc2)s1 (centres unmarked) [CBK036976],114.191
16,O=C(CSc1nc2ccccc2c(=O)[nH]1)NCCO [CBK266469],99.7384
17,O=C1CCC(=O)N1CCN1C(=O)C2(CC(=O)N(CCC(F)(F)F)C2=O)c2ccccc21 (centres unmarked) [CBK076031],101.274
18,CN(C)CCN(C)C(=O)c1ccc(-c2cc(C(F)(F)F)cc(C(F)(F)F)c2)nc1N(C)C [CBK106069],121.36
19,O=C(NC1CC1)c1ccc(-n2cccn2)c(C#Cc2cccnc2)c1 [CBK282449],144.577
20,O=C(O)C1CCCCN1Cc1ccccc1 (centres unmarked) [CBK261687],100.917
21,Cc1cc(N2CCC(N(C)C)CC2)nc(N)n1 [CBK167267],134.714
22,CC(C)NC(=O)NC(=O)C1CCN(CCOc2ccc(Cl)cc2Cl)CC1 [CBK034949],102.447
23,O=C(Cn1c(=O)oc2ccccc21)Nc1ccc(S(=O)(=O)Nc2nccs2)cc1 [CBK267686],120.379
24,CCC1CCCCN1C(=O)c1cc(C)ccc1F (centres unmarked) [CBK082754],157.69
25,Cn1c(C(=O)O)cc2cc(Oc3ccccc3)ccc21 [CBK286873],121.207
26,CS(=O)(=O)N(CC(=O)O)c1ccc2c(c1)OCCO2 [CBK287151],122.976
27,Nc1ccc(Sc2nc3ccccc3nc2C(F)(F)F)cc1 [CBK089560],112.309

row,SMILES,% of control remaining [%]
1,Cc1ccccc1-n1ncc2c(=O)n(CC(=O)Nc3ccccc3)cnc21 [CBK287689],118.134
2,O=c1[nH]cnc2c1cnn2Cc1ccccc1Cl [CBK287999],95.5081
3,O=C(COc1ccccc1)Nc1ccccc1CO [CBK263596],95.9712
4,COc1ccc2[nH]c(=O)c(CNc3ccc(CCc4nc5ccccc5n4C)cc3)cc2c1 [CBK286162],123.737
5,Cc1cccc(-n2cnc3cc(C(=O)NCc4cccnc4)ccc32)c1 [CBK294455],146.85
6,CN(CCN1CCCCC1)C(=O)c1cc2c([nH]1)CCCC2 [CBK281836],151.381
7,O=C1CC(c2ccc(C(=O)O)cc2)c2sccc2N1 (centres unmarked) [CBK287119],125.341
8,CCCNS(=O)(=O)c1ccc(OCC(=O)N2CCN(C)CC2)c(C)c1 [CBK270169],122.452
9,O=C1NC/C=C/CC2(CCN(C(=O)CCc3cccnc3)CC2)C(=O)NCCOc2ccccc21 [CBK292007],128.842
10,OCCC1CNCCN1CC1CCCCC1 (centres unmarked) [CBK270115],123.821
11,Cc1csc(C(Cc2cccs2)NC(=O)Cc2ccccn2)n1 (centres unmarked) [CBK285005],105.003
12,COCCc1nsc(N2CCCC(c3nccs3)C2)n1 (centres unmarked) [CBK305110],176.96
13,Cc1ccccc1S(=O)(=O)Nc1nccnc1-c1ccc2c(c1)OCO2 [CBK050941],90.4061
14,Cc1cc2ccccc2n2c(=O)n(CC(=O)N3CCCCCC3)nc12 [CBK283883],120.226
15,NNC(=O)CCn1c2ccc(Cl)cc2c2cc(Cl)ccc21 [CBK261413],113.262
16,CCN1CCN(c2ccc(NC(=O)Cn3cnc4c(=O)n(C)c(=O)n(C)c43)cc2Cl)CC1 [CBK269535],135.221
17,O=C(CSc1nc(-c2ccccc2)cc(=O)[nH]1)NCc1ccccc1 [CBK287734],120.045
18,CCCNS(=O)(=O)c1cc(C(=O)O)ccc1OC [CBK287152],117.165
19,CC(=O)NC[C@@H]1C=C(C)[C@H](CC(=O)Nc2ccccn2)C[C@H]1C(C)C [CBK289209],115.538
20,CC(C)(C)NC(=O)N1CCC(=O)N1 [CBK007341],126.118
21,O=C1NC2(CCc3ccccc31)CCN(C(=O)c1ccncc1)C2 (centres unmarked) [CBK283336],120.261
22,CC1=NNC(=O)C1Cc1ccc(F)cc1 (centres unmarked) [CBK067755],78.9414
23,Cn1nnc2cc(NCC3(CNC(=O)OC(C)(C)C)CC3)ccc21 [CBK304777],107.671
24,CCCc1c(C)nc2ccc(C)cc2c1SCC(=O)O [CBK263537],100
25,CCOC(=O)n1c(=O)n2n(c1=O)CC=CC2 [CBK023102],109.721
26,C=CCN1C(=O)C2(CC(=O)N(Cc3ccccc3)C2=O)c2cc(OC)ccc21 (centres unmarked) [CBK075281],105.324
27,Cc1nc(COc2ccc(C(=O)N3CCCC(C(N)=O)C3)cc2)no1 (centres unmarked) [CBK305660],105.499

row,SMILES,% of control remaining [%]
1,Cn1ccc2ccc(C(=O)Nc3nccs3)cc21 [CBK287910],126.063
2,CC(=O)Nc1ccc(NC(=O)CCn2c(-c3cccc(C)c3)n[nH]c2=S)cc1Cl [CBK296656],163.468
3,CC(=O)Nc1cccc(-n2nnnc2SCC2CCCN(C)C2)c1 (centres unmarked) [CBK305294],106.795
4,CCN(Cc1cnc(C)s1)[C@H]1CCO[C@@H](c2ccccc2-c2ccc(OC)cc2)C1 [CBK285853],97.7073
5,O=C(CN1C(=O)COc2ccc(Cl)cc21)Nc1ccc2[nH]c(=O)[nH]c2c1 [CBK268295],75.6019
6,O=C(O)c1cc(Br)cc2c3c([nH]c12)CCCC3 [CBK100973],124.731
7,CC(C)(C)n1ncc2c(=O)n(CC(=O)Nc3ccccc3)cnc21 [CBK287541],74.3951
8,COc1ccc(Oc2nccnc2N2CCN(Cc3ccc(C(F)(F)F)cc3)CC2)cc1OC [CBK083044T],78.7829
9,O=C1NC[C@@H](Cc2ccccc2)NC(=O)C2(C/C=C/COc3ccccc31)CCN(Cc1ncccc1F)CC2 [CBK292193],84.8667
10,COc1cccc(CN2CCN(C(=O)c3cccc(F)c3)CC2)c1OC [CBK074527],111.956
11,O=C(O)/C=C/c1cccc(-c2cn3ccnc3c(NCc3cccnc3)n2)c1 [CBK066283],160.89
12,O=C(CSc1nc(-c2cccs2)cc(C(F)(F)F)n1)NN1CCOCC1 [CBK307375],145.927
13,COCCc1noc(CC2CCN(c3cc(C)ncc3C#N)CC2)n1 [CBK304092],122.683
14,COc1cc(CNc2cc(-c3ccc4c(c3)OCO4)ncn2)cc(OC)c1OC [CBK037822],90.9992
15,O=C(CSc1ccc(Cl)cc1)Nc1cccc2nsnc12 [CBK267936],100
16,CCCC(=O)N1CCC(c2cc(C(F)F)c3c(C)noc3n2)CC1 [CBK285304],107.538
17,Cc1nn(C)cc1CN(C)S(=O)(=O)c1cccc([N+](=O)[O-])c1 [CBK265399],129.074
18,Cn1c(=O)c2c(ncn2CC(=O)Nc2ccccc2C#N)n(C)c1=O [CBK133465],114.986
19,CCn1nc(C)c(CN(C)C(=O)C2CC=CCC2C(=O)O)c1C (centres unmarked) [CBK286884],113.688
20,CCn1c(CN2CCN(Cc3ccc4c(c3)OCO4)CC2)n[nH]c1=S [CBK013828],111.432
21,CCCCSc1nc(N)cc(N2CCC3(CCNC(=O)CC3)CC2)n1 [CBK307001],122.022
22,Cc1c(Br)c(C(F)(F)F)nn1CC(=O)Nc1ccc(Oc2cc([N+](=O)[O-])cc([N+](=O)[O-])c2)cc1 [CBK262558],96.673
23,CN1CCN(Cc2c(O)ccc3cc(-c4ccc(F)cc4)c(=O)oc23)CC1 [CBK267976],82.5335
24,COC(=O)[C@@H](C)NC(=O)[C@H]1CN(C(=O)c2cccnc2)CCN1C(=O)NC1CCCCC1 [CBK289632],145.229
25,COc1cc(C(C)=O)ccc1OC(=O)CN1C(=O)c2ccccc2C1=O [CBK262392],97.4353
26,OCCn1c(-c2ccc(Br)cc2)cn2c3ccccc3nc12 [CBK262167],80.3021

# As a short view, 3 of the compounds above:
row,SMILES,% of control remaining [%]
1,Cn1ccc2ccc(C(=O)Nc3nccs3)cc21 [CBK287910],126.063
2,CC(=O)Nc1ccc(NC(=O)CCn2c(-c3cccc(C)c3)n[nH]c2=S)cc1Cl [CBK296656],163.468
3,CC(=O)Nc1cccc(-n2nnnc2SCC2CCCN(C)C2)c1 (centres unmarked) [CBK305294],106.795
